We go through 1 substance from patent US8763410B2, “Method and apparatus for the dissolution and filtration of a hyperpolarized agent with a neutral dissolution media” (General Electric Company, priority 2008, dated 2014).

This series is described as follows: Comparison of EPA in filtered and unfiltered solutions. The conditions noted are these: 46 g water 130° C., 250 psi, two 20 μm frits and 0.45 μm Nalgene filter. As to the method:
A fluid path syringe was filled with 46 g of 18.2 MΩcm water and 8.75 g of 720 mM NaOH, 400 mM TRIS and 536 μM EDTA was put into the fluid path receiver. A mixture of ^12C pyruvic acid and EPA in the ratio of 53:1 respectively was placed in the sample container of the fluid path to simulate the hyperpolarized imaging agent. The water in the syringe was heated to 130° C. and the sample container was dipped into liquid nitrogen. The system was pressurized to 250 psi. A 0.45 μm Nalgene filter was connected on the back end of the filter body. The filter body contained two diffusers and two frits normally used to hold a chemical resin in place, but in this instance were used as mechanical particle size exclusion filters (Varian, part number 12131043, 1.5″ diameter, average pore size 20 μm). The valves of the fluid path were opened in the normal sequence for the dissolution to occur.

Regarding “tris {8-carboxyl-2,2,6,6-tetra[2-(1-methoxyethyl)]-benzo(1,2-d:4,5-d′)bis(1,3)dithiole-4-yl}methyl sodium salt [EPA]”, the “reduction in EPA concentration as compared to an unfiltered system” value stood at 99%. For the same substance, the “EPA concentration of resulting solution in the receiver” value (two diffusers) is under 3 µM.
